# From PMC7565527, “Cryo-EM Structure of Heterologous Protein Complex Loaded Thermotoga Maritima Encapsulin Capsid” (Biomolecules, 2020)
# Molecular target: T1, His-GFP-IDM1 (His-sfGFP fused at the N-terminus of IDM1) (Arabidopsis thaliana) (UniProt F4IXE7)
# T1 sequence: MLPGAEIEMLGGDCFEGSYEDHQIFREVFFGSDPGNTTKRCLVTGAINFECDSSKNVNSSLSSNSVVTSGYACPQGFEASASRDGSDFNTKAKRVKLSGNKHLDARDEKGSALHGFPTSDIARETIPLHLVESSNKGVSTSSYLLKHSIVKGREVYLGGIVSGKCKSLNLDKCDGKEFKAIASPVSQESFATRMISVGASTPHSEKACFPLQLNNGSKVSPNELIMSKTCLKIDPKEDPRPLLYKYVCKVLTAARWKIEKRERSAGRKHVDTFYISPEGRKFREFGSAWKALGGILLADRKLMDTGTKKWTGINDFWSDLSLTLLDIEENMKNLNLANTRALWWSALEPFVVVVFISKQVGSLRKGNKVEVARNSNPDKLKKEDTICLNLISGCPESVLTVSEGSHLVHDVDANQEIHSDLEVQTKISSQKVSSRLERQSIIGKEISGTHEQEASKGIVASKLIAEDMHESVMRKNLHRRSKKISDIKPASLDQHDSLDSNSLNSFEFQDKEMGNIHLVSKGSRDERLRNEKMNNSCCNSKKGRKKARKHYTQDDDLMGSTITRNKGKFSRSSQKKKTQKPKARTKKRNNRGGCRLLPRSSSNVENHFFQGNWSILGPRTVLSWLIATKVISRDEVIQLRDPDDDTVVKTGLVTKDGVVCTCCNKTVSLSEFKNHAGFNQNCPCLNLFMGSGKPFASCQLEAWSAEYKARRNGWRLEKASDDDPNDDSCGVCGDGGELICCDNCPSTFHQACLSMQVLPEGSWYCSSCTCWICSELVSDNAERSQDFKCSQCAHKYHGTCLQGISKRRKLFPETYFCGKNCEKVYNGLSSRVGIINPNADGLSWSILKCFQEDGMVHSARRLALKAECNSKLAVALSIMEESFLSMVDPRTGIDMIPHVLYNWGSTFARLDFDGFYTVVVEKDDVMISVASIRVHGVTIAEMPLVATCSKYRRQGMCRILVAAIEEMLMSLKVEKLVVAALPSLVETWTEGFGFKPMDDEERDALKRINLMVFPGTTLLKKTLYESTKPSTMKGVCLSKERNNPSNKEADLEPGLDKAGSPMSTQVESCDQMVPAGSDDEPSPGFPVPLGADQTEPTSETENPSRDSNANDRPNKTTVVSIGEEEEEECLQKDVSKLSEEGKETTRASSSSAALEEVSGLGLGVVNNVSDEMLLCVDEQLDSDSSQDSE
# Experiment: co-purification (His-tag affinity, SDS-PAGE); IDM complex without encapsulin, coexpressed in insect cells, purified with the His-tag on the N-terminus of IDM1 (His-sfGFP-IDM1 as bait)
row,binding,Substance
1,binds,HDP2 (Arabidopsis thaliana)
2,binds,HDP1 (Arabidopsis thaliana)

# Results are given in words; binding and its absence hold for the method and conditions named. Binding seen in cells or lysates may run through a third protein. Binding can be weak; no strength is given. Sequences can lack the tags named with a protein.
